The values that follow come from patent US20210017289A1 (AbbVie / Abbott, published 2021).

No constants are given. Whether binding was seen depends on the method and setting. Some binding calls cover weakened binding; strength is not graded here.

One test addresses 293s-huOX40-muCRDIV. Put plainly: flow cytometry on 293s transfectants, Hu3738 added at 2 µg/mL, Cy5 donkey anti-human IgG.
For test [1], the target named is T1, human OX40 expressed on cells (human, UniProt P43489 29-277).
T1 sequence: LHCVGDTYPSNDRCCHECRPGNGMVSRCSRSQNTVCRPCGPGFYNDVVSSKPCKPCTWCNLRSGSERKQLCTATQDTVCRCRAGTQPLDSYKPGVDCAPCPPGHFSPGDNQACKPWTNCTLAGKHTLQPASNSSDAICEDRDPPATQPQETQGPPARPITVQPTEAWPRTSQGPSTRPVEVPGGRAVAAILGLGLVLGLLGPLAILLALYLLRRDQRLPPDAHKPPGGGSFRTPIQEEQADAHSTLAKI
Put plainly: flow cytometry competition on Jurkat-NF-κB-huOX40 cells; competitor labeled Hu3738.

The target of test [2] is T1, human OX40 expressed on cells. Put plainly: competition by flow cytometry on Jurkat-NF-κB-huOX40 cells; competitor: ALEXA FLUOR 647-labeled Hu3738 at 2 µg/mL. The method, then:
Analysis was performed by flow cytometry.

B1: Hu3738 (antibody, V domains shown)
VH: EVQLVESGGGLVQPGGSLRLSCAASGFTFSRYGMSWVRQAPGKGLELVATINSNGGRTYYPDSVKGRFTISRDNAKNSLYLQMNSLRAEDTAVYYCAREGITTAYAMDYWGQGTTVTVSS
VL: DIVMTQSPDSLAVSLGERATINCKASQSVDYDGDSYMHWYQQKPGQPPKLLIYAASILESGVPDRFSGSGSGTDFTLTISSLQAEDVAVYYCQQSNEDPRTFGGGTKVEIKR
notes: Humanized antibody; also called exemplary anti-OX40 antibody Hu3738; Hu3738 VH.1b / Hu3738 VL.1
B1: the binding entry with 293s-huOX40-muCRDIV is “binds”.

B2: 106-222 (antibody, human IgG1, V domains shown)
VH: QVQLVQSGSELKKPGASVKVSCKASGYTFTDYSMHWVRQAPGQGLKWMGWINTETGEPTYADDFKGRFVFSLDTSVSTAYLQISSLKAEDTAVYYCANPYYDYVSYYAMDYWGQGTTVTVSS
VL: DIQMTQSPSSLSASVGDRVTITCKASQDVSTAVAWYQQKPGKAPKLLIYSASYLYTGVPSRFSGSGSGTDFTFTISSLQPEDIATYYCQQHYSTPRTFGQGTKLEIK
notes: 2013/0280275
Take B2: the binding entry in test [1] and in test [2] was “binds” in each case.
